Data: patent publication US6268220A, “Diagnostic method for atherosclerosis” (Washington University, priority 1996, dated 2001)
For at least one compound, name, drawing or mass did not settle the structure.

Legend:
Human neutrophils = experiment: Formation of 3-chlorotyrosine in LDL exposed to activated human phagocytes; format: cell-based; settings: PMA-activated human neutrophils 1×10^6/ml, 60 min, 37° C.; additive to complete neutrophil system; FIG. 1
Experimental: Human neutrophils (1×10^6 /ml) were incubated at 37° C. in Hank's Balanced Salt Solution supplemented with DTPA (100 μM) and LDL (512 μg protein/ml). Neutrophils were activated with phorbol ester (PMA; 200 nM) and maintained in suspensions by intermittent inversion (Complete neutrophil system).
Following a 60 min incubation, neutrophils were removed by centrifugation. The supernatant was delipidated and dialyzed, ^13 C-labeled internal standards were added, and the samples were then subjected to acid hydrolysis. The content of L-tyrosine and 3-chlorotyrosine in acid hydrolysates were determined by stable isotope dilution GC-MS analysis as described under "Method", below.
Additions or deletions to the complete system were as indicated. The final concentrations of additions were:
3-Chlorotyrosine content of LDL is normalized to the content of the precursor amino acid L-tyrosine. Values are the mean of duplicate determinations.
General Procedures--All glassware was rendered chlorine-demand free (<3% consumption of 1 mM HOCl in a 10 min incubation at 37° C. within a gas-tight vial as monitored by the oxidation of iodide to triiodide) prior to use (12,25,27). […] Enzyme concentration was determined spectrophotometrically ε430 =170 mN^-1 cm^-1; ref. 30). […]

myeloperoxidase = molecular target: T1, myeloperoxidase (Homo sapiens, UniProt P05164); experiment: Chlorination of apolipoprotein B100 of LDL by the myeloperoxidase-H2O2-Cl- system (3-chlorotyrosine by GC-MS); format: biochemical; settings: Complete system (LDL 512 μg protein/ml, MPO 40 nM, H2O2 100 μM, Cl- 100 mM) plus additive at printed concentration; 1 h, 37° C.; complete system alone 50; detection limit <0.1
T1 construct: light and heavy chains, homodimer) with H2O2, chloride and human LDL as substrate
T1 sequence (P05164 49-745): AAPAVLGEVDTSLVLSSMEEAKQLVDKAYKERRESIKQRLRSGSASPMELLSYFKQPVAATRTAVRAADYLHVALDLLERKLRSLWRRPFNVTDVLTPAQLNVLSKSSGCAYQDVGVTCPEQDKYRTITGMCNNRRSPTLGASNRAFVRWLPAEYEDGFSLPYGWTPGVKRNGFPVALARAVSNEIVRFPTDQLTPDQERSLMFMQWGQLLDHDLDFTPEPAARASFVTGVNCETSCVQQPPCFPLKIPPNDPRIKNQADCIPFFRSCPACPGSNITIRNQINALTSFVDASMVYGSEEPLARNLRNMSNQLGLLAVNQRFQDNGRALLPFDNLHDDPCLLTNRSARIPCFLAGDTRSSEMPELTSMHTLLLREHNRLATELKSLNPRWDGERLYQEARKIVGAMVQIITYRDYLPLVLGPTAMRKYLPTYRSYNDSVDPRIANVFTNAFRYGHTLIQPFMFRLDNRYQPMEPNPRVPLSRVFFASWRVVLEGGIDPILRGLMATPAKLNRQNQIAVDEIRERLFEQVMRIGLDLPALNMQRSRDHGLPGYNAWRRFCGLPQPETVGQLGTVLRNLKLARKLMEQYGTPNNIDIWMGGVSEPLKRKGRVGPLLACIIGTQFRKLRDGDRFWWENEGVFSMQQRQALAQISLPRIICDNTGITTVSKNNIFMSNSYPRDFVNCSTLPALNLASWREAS
Experimental: General Procedures--All glassware was rendered chlorine-demand free (<3% consumption of 1 mM HOCl in a 10 min incubation at 37° C. within a gas-tight vial as monitored by the oxidation of iodide to triiodide) prior to use (12,25,27). […] Myeloperoxidase (donor: hydrogen peroxide, oxidoreductase, EC 1.11.1.7) was isolated (final A430 /A280 ratio of 0.6) as previously described (28,29). Enzyme concentration was determined spectrophotometrically ε430 =[…] cm^-1; ref. 30). Human neutrophils were isolated by buoyant density centrifugation (31). […]
Mass Spectrometric Analysis--n-Propyl, perheptafluorobutyl (HFB) and n-propyl, perpentafluoroproprionyl (PFP) derivatives of amino acids were prepared (38) and analyzed on a Hewlett Packard 5890 Gas Chromatograph interfaced with a Hewlett Packard 5988A Mass Spectrometer equipped with extended mass range. […]
Amino acids were quantified utilizing stable isotope dilution GC-MS analysis in the negative-ion chemical ionization mode (25,26). 3-Chlorotyrosine was monitored as its n-propyl-per-HFB derivative utilizing selected ion monitoring of the base peak at mass-to-charge ratio (m/z) 451 (M^.- -HFB), another prominent ion at m/z 629 (M^.- -HF), and their isotopically labeled internal standard ions at m/z 457 and 635, respectively. […]

Q: `Nc1nc[nH]n1` [3-aminotriazole] was tested. Which “3-chlorotyrosine production in LDL incubated with activated phagocytes” value (Human neutrophils) did it give?
A: The value was “inhibited”.

Q: What about the 3-Chlorotyrosine/L-Tyrosine (myeloperoxidase) of the same compound?
A: Its 3-Chlorotyrosine/L-Tyrosine is 0 umol/mol.
